Measurements from patent US20240117326A1.
No constants are given. Whether binding was seen depends on the method and setting. In cells and extracts the contact can be indirect. Some results given as binding are weak or reduced against the parent protein; the word gives no strength.

Sequences of proteins named here, by UniProt entry; tags and fusion partners are left off. A change or cut given only in a name is not applied to a line headed by its entry.
UniProt P16267: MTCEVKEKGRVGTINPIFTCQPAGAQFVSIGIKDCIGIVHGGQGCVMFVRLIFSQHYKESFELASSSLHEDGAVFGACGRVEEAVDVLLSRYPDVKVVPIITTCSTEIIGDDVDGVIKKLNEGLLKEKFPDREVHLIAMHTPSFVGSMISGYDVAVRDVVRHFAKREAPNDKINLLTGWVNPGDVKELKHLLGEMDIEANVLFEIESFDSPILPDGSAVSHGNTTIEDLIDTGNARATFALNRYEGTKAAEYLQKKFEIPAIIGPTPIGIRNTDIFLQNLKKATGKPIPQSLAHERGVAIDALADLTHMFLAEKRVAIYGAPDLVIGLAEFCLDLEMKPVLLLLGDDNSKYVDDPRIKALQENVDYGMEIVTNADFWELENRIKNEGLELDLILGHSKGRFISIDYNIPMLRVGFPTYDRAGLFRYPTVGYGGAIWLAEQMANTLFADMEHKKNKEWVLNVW
UniProt P16266: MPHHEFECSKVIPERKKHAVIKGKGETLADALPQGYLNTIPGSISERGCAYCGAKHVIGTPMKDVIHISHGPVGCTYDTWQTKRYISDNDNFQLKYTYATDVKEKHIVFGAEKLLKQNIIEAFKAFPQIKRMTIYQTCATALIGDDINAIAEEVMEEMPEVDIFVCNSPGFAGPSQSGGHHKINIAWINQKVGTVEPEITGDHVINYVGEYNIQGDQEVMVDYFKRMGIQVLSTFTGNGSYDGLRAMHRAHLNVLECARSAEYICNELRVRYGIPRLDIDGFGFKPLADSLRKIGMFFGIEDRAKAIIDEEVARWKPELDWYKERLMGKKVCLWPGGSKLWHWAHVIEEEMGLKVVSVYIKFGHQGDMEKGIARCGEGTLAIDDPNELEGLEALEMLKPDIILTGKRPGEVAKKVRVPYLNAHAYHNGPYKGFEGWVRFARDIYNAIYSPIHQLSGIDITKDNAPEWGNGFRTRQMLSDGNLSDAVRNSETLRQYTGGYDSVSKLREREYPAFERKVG

What was measured:
[1] = molecular target: MPP-processed MTP-CoxIV::Twin Strep::AnfK fusion polypeptide (gene of SN195; in SL34, SL37, SL43) (Azotobacter vinelandii) (UniProt P16267); assay: LC-MS and targeted MRM of the eluate of the TwinStrep::AnfK purification (SL37, anaerobic)
[2] = molecular target: MPP-processed MTP-CoxIV::Twin Strep::AnfK fusion polypeptide (gene of SN195; in SL34, SL37, SL43) (Azotobacter vinelandii) (UniProt P16267); assay: co-purification on Strep-tactin XT column through TwinStrep::AnfK (SL37), anaerobic; anti-HA Western blot of the eluate
[3] = molecular target: MPP-processed MTP-CoxIV::TwinStrep::AvAnfG fusion polypeptide (in SL93) (Azotobacter vinelandii); assay: co-purification on Strep-tactin XT column through TwinStrep::AnfG (SL93), anaerobic; anti-HA Western blot and LC-MS of the eluate

| binding [1] | binding [2] | binding [3] | Substance |
| --- | --- | --- | --- |
| binds | binds | – | MPP-processed MTP-FAγ51::AnfD::HA fusion polypeptide (gene of SN81; in SL37) (from UniProt P16266 1-518) (enzyme) |
| – | – | binds | MPP-processed MTP-FAγ51::HA::AnfD fusion polypeptide (gene of SN161; in SL26, SL34, SL43, SL93) (from UniProt P16266 1-518) (enzyme) |
